To fix the notation:
B1: 3503-hab064 (antibody, V domains shown)
VH: QVQLVESGGGVVQPGRSLRLSCAASGFTFSSYGMHWVRQAPGKGLEWVAVIWYETSNKYYADSVKGRFTISRDNSKNTLYLQMNNLRAEDTAVYYCARYGGNSGWYWYFDLWGRGTLVTVSS
VL: DIQLTQSPSFLSASVGDRVTITCRASQGISSFLAWYQQKPGTAPKLLIYAASTLQSGVPSRFSGSGSGTEFTLTISSLQPEDFATYCCQQLNSYPFTFGQGTKLEIK
B2: 3503-hab070 (antibody, V domains shown)
VH: B1 VH with Y59F, A61V, N85S, G101A, N102S
VL: B1 VL with T42K
B3: 3503-hab070e1 (antibody, V domains shown)
VH: B1 VH with Y59F, A61V, N85S, G101A, N102S
VL: B1 VL with T42K, C87Y
B4: 3503-mAb064 (antibody, V domains shown)
VH: B1 VH
VL: B1 VL
B5: 3503-mAb070 (antibody, V domains shown)
VH: B1 VH with Y59F, A61V, N85S, G101A, N102S
VL: B1 VL with T42K

Chains of the proteins cited; added tags and fusions are not shown. Residues count along the entry.
UniProt Q9Y5U5, residues 26-241: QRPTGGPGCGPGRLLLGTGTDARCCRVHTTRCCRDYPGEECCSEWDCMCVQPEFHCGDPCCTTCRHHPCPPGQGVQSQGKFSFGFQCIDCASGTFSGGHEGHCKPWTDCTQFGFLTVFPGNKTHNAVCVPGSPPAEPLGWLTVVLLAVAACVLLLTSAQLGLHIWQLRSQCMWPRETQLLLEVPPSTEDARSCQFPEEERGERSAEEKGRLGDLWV

Numbering of substitutions follows the chain as printed. No constants are given. Whether binding was seen depends on the method and setting. Some binding calls cover weakened binding; strength is not graded here.

The first assay has as its target human GITR (full length, on cells) (human) (UniProt Q9Y5U5). Kind of assay: FACS on 293F-hGITR cells, MFI [panel A].
For the molecule B1, the binding entry is listed as “binds”.

Consider B2, for which the binding result is recorded as “binds”.

On to B3, for which the binding result is given as “binds”.

The target is the same in a further assay. Put plainly: flow cytometry (FACS) on 293F-hGITR cells. Background: A flow cytometer gives signals particle by particle.
Consider B1, for which the binding result was “binds”.

In the case of B2, the binding result is listed as “binds”.

For the molecule B3, the binding entry was “binds”.

With B4, the binding result is recorded as “binds”.

As to B5, the binding entry is reported as “binds”.

The next assay has the same target. Put plainly: flow cytometry (FACS) on spleen cells of humanized B-hGITR mice.
Take B3: the binding result is listed as “binds”.
